Results are given in words; binding and its absence hold for the method and conditions named. In cells and extracts the contact can be indirect. Some entries that bind do so weakly or less than the wild type. Where a sequence is shown, tags or fusion partners need not be part of it.

The target of assay [1] is T1, GST-tagged Ubp13 (S. cerevisiae) (UniProt P38187).
T1 sequence: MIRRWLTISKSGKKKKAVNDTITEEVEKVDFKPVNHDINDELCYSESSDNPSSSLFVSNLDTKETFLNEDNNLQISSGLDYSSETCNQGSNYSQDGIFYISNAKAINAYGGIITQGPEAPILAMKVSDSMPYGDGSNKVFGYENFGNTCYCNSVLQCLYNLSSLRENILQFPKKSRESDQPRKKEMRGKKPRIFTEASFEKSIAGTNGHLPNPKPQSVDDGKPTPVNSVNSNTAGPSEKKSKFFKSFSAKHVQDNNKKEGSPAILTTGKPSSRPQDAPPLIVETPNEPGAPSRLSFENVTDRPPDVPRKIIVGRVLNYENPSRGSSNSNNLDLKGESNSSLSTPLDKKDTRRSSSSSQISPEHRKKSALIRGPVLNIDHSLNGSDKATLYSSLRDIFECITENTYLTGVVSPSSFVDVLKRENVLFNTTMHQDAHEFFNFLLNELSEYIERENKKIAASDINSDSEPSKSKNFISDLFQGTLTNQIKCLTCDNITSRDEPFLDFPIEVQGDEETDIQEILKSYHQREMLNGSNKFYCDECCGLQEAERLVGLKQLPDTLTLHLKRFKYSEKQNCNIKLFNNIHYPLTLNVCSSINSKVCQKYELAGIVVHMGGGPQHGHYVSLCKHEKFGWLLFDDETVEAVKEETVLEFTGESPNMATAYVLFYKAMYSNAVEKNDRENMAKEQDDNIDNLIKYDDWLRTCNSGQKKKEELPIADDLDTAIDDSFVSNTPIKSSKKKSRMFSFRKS
Description: pull-down; GST, GST-Ubp9 or GST-Ubp13 on glutathione-Sepharose beads incubated with a lysate of yeast cells producing Duf1-HA; 50 mM Tris pH 7.4, 300 mM NaCl, 10 mM MgCl2, 0.1% Triton X-100, 1 mM DTT, 10% glycerol; 1 h at 4°C; eight washes; blot with anti-HA; only the target purified.

Assay [2] concerns the target T2, GST-tagged Ubp9 (S. cerevisiae) (UniProt P39967).
T2 sequence: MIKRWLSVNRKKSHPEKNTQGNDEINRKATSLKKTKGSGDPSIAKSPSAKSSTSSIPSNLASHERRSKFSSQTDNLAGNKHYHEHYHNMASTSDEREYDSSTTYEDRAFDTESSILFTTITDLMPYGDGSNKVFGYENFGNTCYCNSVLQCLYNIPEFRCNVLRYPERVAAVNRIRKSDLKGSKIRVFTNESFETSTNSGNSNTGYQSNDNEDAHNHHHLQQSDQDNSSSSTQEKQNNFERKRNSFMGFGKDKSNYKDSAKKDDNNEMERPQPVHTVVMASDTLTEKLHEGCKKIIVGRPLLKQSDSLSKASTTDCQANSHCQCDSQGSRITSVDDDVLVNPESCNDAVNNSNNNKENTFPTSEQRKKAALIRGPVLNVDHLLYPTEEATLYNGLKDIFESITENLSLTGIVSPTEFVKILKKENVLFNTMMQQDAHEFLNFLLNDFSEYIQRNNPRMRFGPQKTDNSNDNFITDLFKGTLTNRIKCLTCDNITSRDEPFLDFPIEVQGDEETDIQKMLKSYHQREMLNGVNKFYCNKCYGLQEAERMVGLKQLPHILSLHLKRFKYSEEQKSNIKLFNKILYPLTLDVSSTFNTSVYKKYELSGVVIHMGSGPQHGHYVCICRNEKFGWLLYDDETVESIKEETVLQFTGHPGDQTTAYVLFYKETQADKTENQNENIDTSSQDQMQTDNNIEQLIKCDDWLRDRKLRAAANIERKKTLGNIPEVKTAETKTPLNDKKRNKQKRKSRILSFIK
The description is as above.

In assay [3] the target is T1, GST-tagged Ubp13 (S. cerevisiae). Nature of the assay: pull-down; GST, GST-Ubp9 or GST-Ubp13 on glutathione-Sepharose beads incubated with a bacterial lysate of cells expressing 6His-Duf1; same buffer as for the yeast lysate; 1 h at 4°C; blot with anti-His; only the target purified.
The target in assay [4] is T2, GST-tagged Ubp9 (S. cerevisiae). The assay is described as above.

B1: Duf1-HA, chromosome-encoded (protein, UniProt Q99247 1-1116)
chain: MNQLTVSYGLISPDYCTSQDAHILPITKILYPDIPGKNYFLTSGRDGSIILHKNTQLSNEPETAATTIKNDAIRMQVHSDWASDLIHVNMKNSDPSAGDTFISVSHDFSIVLISVNAQLTTWDKKIIGDHDDYIKCIVPIHYEMSNDYELEEQEGGPDNVHDGINNGIVVDEQNNFLFVTGGLDRKIKLWCLSSGPEKMATLLHTFDNAQSNDTGSIYSMSPIIPKYSFDDNQTSRPFDFVAGDCNGDLIFYSCKYRKEVIRIQNAHRTNIKVVRTLDDSTRLISTSSDGVINVWDLNCRHDQTTGALQLPKKIGSWSWDSSIWCVQGTSLDKLYFGDSQGNVMRANLSSYEDAKLTRIFKPDHHHHHHHHHEHEEQNISTTDAKVKKYGGILDIALLPNEKLLFSFCTDSNLNVLDLTNNHFSVNEGGFALTRSSLLTNRRHVITENTKGQMQRWDIVSCELLNTFDSSEGSFDDIVMKYTSKEILSHWCTVSVKVGMLFVKINPKFLKTEVYGSALKDYQVVNNIEINSDERYNLGKIVINSLFNEFISYEVQKDKLLRKKIFSLKKKDLTNSLTLDTGYNSESKKNNKDKKRKSTFKISSTLSIGNTNSSGTPPNSAPATPVMAETIVLEEQPLLQSASDKAIDDSLELVQPLPASKKPYFRTQSSGSLLSRKFKSFRSTSGRATTGLNTPEEPKGILPDTPHVINDDSAFPQAINTTQQSKDATPESMLWNHPFKLEQKLSAISSQDLPSNNTHNKLRSSENSRANSTSTLEGNEKKKPEFMPDLLEQIQESYKQQYMNTSSLKYLTKRLPVTKIIKASSCPIIRVKSATLVLVHLWKEGSCGGRVLFSTLLPPSHVDNETVSGGKENSKPPDDEEVDLQAVDDDKLGKYDLIDGELGSRLNRRQIFEQLEENLPYWFAKALFRDIKTVEEQPKLNFLIMPWSSVGGSEAAGNENKKKFISASDTTESSGNDSSDSSLGNGNEAVSPSTQQQFHNMLKFGRPKTSEQELNPTDLPRISEANVKLVAPGMIRVKKIKLYVADRFETKTPEMKAKMEPSLWLDLLCRGQVLDNDMTLNTVRTLYWKSQGDIVLEYRRKVHNSPLVHEVNGNEGK
With B1, the binding entry in assay [1] and in assay [2] was “binds” in each case.

B2: 6His-Duf1 produced in bacteria (protein, UniProt Q99247 1-1116)
chain: MNQLTVSYGLISPDYCTSQDAHILPITKILYPDIPGKNYFLTSGRDGSIILHKNTQLSNEPETAATTIKNDAIRMQVHSDWASDLIHVNMKNSDPSAGDTFISVSHDFSIVLISVNAQLTTWDKKIIGDHDDYIKCIVPIHYEMSNDYELEEQEGGPDNVHDGINNGIVVDEQNNFLFVTGGLDRKIKLWCLSSGPEKMATLLHTFDNAQSNDTGSIYSMSPIIPKYSFDDNQTSRPFDFVAGDCNGDLIFYSCKYRKEVIRIQNAHRTNIKVVRTLDDSTRLISTSSDGVINVWDLNCRHDQTTGALQLPKKIGSWSWDSSIWCVQGTSLDKLYFGDSQGNVMRANLSSYEDAKLTRIFKPDHHHHHHHHHEHEEQNISTTDAKVKKYGGILDIALLPNEKLLFSFCTDSNLNVLDLTNNHFSVNEGGFALTRSSLLTNRRHVITENTKGQMQRWDIVSCELLNTFDSSEGSFDDIVMKYTSKEILSHWCTVSVKVGMLFVKINPKFLKTEVYGSALKDYQVVNNIEINSDERYNLGKIVINSLFNEFISYEVQKDKLLRKKIFSLKKKDLTNSLTLDTGYNSESKKNNKDKKRKSTFKISSTLSIGNTNSSGTPPNSAPATPVMAETIVLEEQPLLQSASDKAIDDSLELVQPLPASKKPYFRTQSSGSLLSRKFKSFRSTSGRATTGLNTPEEPKGILPDTPHVINDDSAFPQAINTTQQSKDATPESMLWNHPFKLEQKLSAISSQDLPSNNTHNKLRSSENSRANSTSTLEGNEKKKPEFMPDLLEQIQESYKQQYMNTSSLKYLTKRLPVTKIIKASSCPIIRVKSATLVLVHLWKEGSCGGRVLFSTLLPPSHVDNETVSGGKENSKPPDDEEVDLQAVDDDKLGKYDLIDGELGSRLNRRQIFEQLEENLPYWFAKALFRDIKTVEEQPKLNFLIMPWSSVGGSEAAGNENKKKFISASDTTESSGNDSSDSSLGNGNEAVSPSTQQQFHNMLKFGRPKTSEQELNPTDLPRISEANVKLVAPGMIRVKKIKLYVADRFETKTPEMKAKMEPSLWLDLLCRGQVLDNDMTLNTVRTLYWKSQGDIVLEYRRKVHNSPLVHEVNGNEGK
In the case of B2, the binding entry in assay [3] and in assay [4] was “binds” throughout.

The values above are taken from publication PMC3378586.
